Results taken from patent US20180364256A1.
Changes are numbered by the printed parent chain. These are yes or no findings as the source states them, for the method shown. Some entries that bind do so weakly or less than the wild type.

Protein sequences, listed by entry. Tags and fused reporters are not part of them. Lines headed by an entry give the natural chain unless they say otherwise; changes in a name come on top. Chains listed by the source or under a name are the forms on record and can include a tag or linker.
mouse cardiac TnT (P50752, form named): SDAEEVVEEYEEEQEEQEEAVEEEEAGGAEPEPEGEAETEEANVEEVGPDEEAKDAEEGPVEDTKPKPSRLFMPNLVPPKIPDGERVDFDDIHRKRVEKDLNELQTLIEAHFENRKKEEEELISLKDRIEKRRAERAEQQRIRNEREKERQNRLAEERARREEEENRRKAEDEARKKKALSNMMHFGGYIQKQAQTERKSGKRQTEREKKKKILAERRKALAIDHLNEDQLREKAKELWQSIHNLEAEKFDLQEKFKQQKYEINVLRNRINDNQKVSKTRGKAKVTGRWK

Assays:
[1] = molecular target: intact human cardiac troponin T (HcTnT) (human) (UniProt P45379); experiment: Western blot on total protein extracts of cardiac and skeletal muscle tissues
[2] = molecular target: intact human cardiac troponin T (HcTnT) (human) (UniProt P45379); experiment: assay not named in the sentence (ELISA titration, FIG. 9A)
[3] = molecular target: intact human cardiac troponin T (HcTnT) (human) (UniProt P45379); experiment: indirect ELISA titration, antigen immobilised on plate
[4] = molecular target: intact human cardiac troponin T (HcTnT) (human) (UniProt P45379); experiment: assay not named in the sentence (ELISA titration per the Examples)
[5] = molecular target: mouse cardiac TnT (mouse) (UniProt P50752); experiment: Western blot on total protein extracts of cardiac and skeletal muscle tissues
[6] = molecular target: N-terminal fragment of human cardiac troponin T (HcTnT-N69) (human); experiment: assay not named in the sentence (ELISA titration, FIG. 9A)
[7] = molecular target: N-terminal fragment of human cardiac troponin T (HcTnT-N69) (human); experiment: indirect ELISA titration, antigen immobilised on plate
[8] = molecular target: N-terminal fragment of human cardiac troponin T (HcTnT-N69) (human); experiment: assay not named in the sentence (ELISA titration per the Examples)

Measured: binding

B1: mouse monoclonal antibody 1D6 (antibody, V domains shown)
VH: GPELVKPGASVKISCKTSGYTFTENTIHWVKQSHGKSLEWVGGINPNNGGTNYNQKFKGRAALTVDKSSSTAYMELRSLTSEDSAVYYCARSWDWFAYWGQGTLVTVSA
VL: LSLPVSLGDQASISCRSSQSLVHSNGNTYLHWYLQKPGQSPKLLVYKVSNRFSGVPDRFSGSGSGTDFTLKIIRVEAEDLGVYFCSQSTRIPFTFGSGTKLEMKR
binds: [1] | [2] | [3] | [4]

B2: mouse monoclonal antibody 3H5 (antibody, IgM, V domains shown)
VH: GGGLVQPKGSLKLSCAASGFTFNTYAMNWVRQAPGKGLEWVARIRSKSNNYATYYADSVKDRFTISRDDSQSMLYLQMNNLKTEDTAMYYCVRHDGVAWFAYWGQGTLVTVSA
VL: LSLPVSLGDQASISCRSSQSIVHSNGNTYLEWYLQKPGQSPKLLIYKVSNRFSGVPDRFSGSGSGTDFTLKISRVEAEDLGVYYCFQGSHVPPTFGAGTKLELKR
binds: [1] | [2] | [3] | [4]

B3: mouse monoclonal antibody 4F5 (antibody, IgM, V domains shown)
VH: B2 VH
VL: B2 VL with R16K, E76K
binds: [1] | [5] | [4]

B4: mouse monoclonal antibody 2A8 (antibody, V domains shown)
VH: B1 VH
VL: B1 VL
binds: [1] | [2] | [3] | [4]

B5: mouse monoclonal antibody 2C1 (antibody, V domains shown)
VH: B1 VH
VL: B1 VL
binds: [1] | [2] | [3] | [4]

B6: mouse monoclonal antibody 2D11 (antibody, IgG1, V domains shown)
VH: B1 VH
VL: B1 VL with E76K
binds: [1] | [2] | [3] | [4]

B7: mouse monoclonal antibody 2F11 (antibody, IgG1, V domains shown)
VH: B1 VH
VL: B1 VL with E76K
not listed: [5]
binds: all other assays above

B8: mouse monoclonal antibody 3F3 (antibody, IgG1, V domains shown)
VH: B1 VH
VL: B1 VL with E76K
not listed: [5]
binds: all other assays above

B9: mouse monoclonal antibody 2H3 (antibody, IgM, V domains shown)
VH: B2 VH
VL: B2 VL with E76K
binds: [4]

B10: mouse monoclonal antibody 2D9 (antibody, IgM, V domains shown)
VH: B2 VH
VL: B2 VL with R16K, E31K, E76K
binds: [4]
